For this experiment, the target named is T1, FLAG-tagged RIG-I (UniProt O95786).
T1 sequence: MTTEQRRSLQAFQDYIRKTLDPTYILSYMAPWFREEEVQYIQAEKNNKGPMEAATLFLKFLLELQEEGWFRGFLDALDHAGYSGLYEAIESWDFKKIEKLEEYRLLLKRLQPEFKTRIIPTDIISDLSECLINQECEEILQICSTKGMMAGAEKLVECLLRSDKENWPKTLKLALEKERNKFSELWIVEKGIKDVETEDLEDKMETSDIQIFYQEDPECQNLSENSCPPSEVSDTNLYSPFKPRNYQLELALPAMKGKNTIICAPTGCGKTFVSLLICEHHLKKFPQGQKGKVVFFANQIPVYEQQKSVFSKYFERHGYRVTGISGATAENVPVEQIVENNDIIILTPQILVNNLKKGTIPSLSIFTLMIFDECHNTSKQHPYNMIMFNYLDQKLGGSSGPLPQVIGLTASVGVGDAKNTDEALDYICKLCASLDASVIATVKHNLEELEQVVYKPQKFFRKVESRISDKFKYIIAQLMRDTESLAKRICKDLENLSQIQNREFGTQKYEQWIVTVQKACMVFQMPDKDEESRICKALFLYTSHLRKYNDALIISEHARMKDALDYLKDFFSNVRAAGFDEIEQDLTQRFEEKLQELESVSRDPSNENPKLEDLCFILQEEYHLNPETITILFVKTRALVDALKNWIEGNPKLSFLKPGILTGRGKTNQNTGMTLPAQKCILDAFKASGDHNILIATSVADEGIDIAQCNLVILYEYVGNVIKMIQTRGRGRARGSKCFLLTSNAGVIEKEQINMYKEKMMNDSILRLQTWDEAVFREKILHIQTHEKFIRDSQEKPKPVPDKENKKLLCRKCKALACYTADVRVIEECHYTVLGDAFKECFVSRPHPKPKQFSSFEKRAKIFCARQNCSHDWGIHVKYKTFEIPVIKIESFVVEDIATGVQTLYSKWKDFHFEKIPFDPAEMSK
In words: co-IP.

No constants are given. Whether binding was seen depends on the method and setting. Binding seen in cells or lysates may run through a third protein. Some entries that bind do so weakly or less than the wild type. Where a sequence is shown, tags or fusion partners need not be part of it.

B1: WRNIP1 (WRN interacting protein 1) (protein, UniProt Q96S55-1 1-665)
chain: MEVSGPEDDPFLSQLHQVQCPVCQQMMPAAHINSHLDRCLLLHPAGHAEPAAGSHRAGERAKGPSPPGAKRRRLSESSALKQPATPTAAESSEGEGEEGDDGGETESRESYDAPPTPSGARLIPDFPVARSSSPGRKGSGKRPAAAAAAGSASPRSWDEAEAQEEEEAVGDGDGDGDADADGEDDPGHWDADAAEAATAFGASGGGRPHPRALAAEEIRQMLQGKPLADTMRPDTLQDYFGQSKAVGQDTLLRSLLETNEIPSLILWGPPGCGKTTLAHIIASNSKKHSIRFVTLSATNAKTNDVRDVIKQAQNEKSFFKRKTILFIDEIHRFNKSQQDTFLPHVECGTITLIGATTENPSFQVNAALLSRCRVIVLEKLPVEAMVTILMRAINSLGIHVLDSSRPTDPLSHSSNSSSEPAMFIEDKAVDTLAYLSDGDARAGLNGLQLAVLARLSSRKMFCKKSGQSYSPSRVLITENDVKEGLQRSHILYDRAGEEHYNCISALHKSMRGSDQNASLYWLARMLEGGEDPLYVARRLVRFASEDIGLADPSALTQAVAAYQGCHFIGMPECEVLLAQCVVYFARAPKSIEVYSAYNNVKACLRNHQGPLPPVPLHLRNAPTRLMKDLGYGKGYKYNPMYSEPVDQEYLPEELRGVDFFKQRRC
As for B1, the binding entry is on record as “binds”.

The record behind these values is publication doi:10.1101/2023.10.03.560559.
